The source of these data is publication PMC5611679.

Protein sequences, listed by entry. Tags and fused reporters are not part of them. Lines headed by an entry give the natural chain unless they say otherwise; changes in a name come on top.
UniProt A0A097IC64: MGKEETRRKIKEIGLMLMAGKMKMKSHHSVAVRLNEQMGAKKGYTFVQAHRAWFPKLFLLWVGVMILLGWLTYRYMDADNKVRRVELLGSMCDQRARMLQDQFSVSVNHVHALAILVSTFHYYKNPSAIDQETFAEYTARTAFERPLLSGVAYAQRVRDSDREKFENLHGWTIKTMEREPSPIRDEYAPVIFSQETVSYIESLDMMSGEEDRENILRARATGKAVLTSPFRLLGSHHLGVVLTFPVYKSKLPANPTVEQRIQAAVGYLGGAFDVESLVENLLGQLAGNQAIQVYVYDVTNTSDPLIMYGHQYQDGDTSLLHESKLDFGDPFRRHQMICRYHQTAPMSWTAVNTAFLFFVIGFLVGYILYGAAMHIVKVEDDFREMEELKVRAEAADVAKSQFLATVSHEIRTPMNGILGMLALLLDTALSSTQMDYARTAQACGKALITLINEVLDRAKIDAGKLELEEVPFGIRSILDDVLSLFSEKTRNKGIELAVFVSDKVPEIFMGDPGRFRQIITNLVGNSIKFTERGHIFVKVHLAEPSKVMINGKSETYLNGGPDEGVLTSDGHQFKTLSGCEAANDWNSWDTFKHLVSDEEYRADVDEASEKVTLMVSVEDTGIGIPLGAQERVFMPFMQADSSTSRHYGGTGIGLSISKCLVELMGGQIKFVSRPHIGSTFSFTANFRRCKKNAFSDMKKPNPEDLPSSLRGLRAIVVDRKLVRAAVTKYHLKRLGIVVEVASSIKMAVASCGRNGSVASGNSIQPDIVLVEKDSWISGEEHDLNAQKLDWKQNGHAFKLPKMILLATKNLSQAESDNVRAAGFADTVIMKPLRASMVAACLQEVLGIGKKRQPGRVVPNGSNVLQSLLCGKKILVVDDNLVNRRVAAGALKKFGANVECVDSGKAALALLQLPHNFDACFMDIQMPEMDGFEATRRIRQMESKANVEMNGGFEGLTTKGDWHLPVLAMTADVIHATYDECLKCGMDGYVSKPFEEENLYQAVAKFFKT

Test in all cases: split reporter; BiFC in transiently co-transformed C. roseus cells (particle bombardment); MdCHK-YFP^N and MdCHK-YFP^C fusions, both combinations; triplicates with three independent plasmid clones
The target of experiment [1] is Malus domestica CHASE-containing histidine kinase 4b (MdCHK4b) (Malus domestica).
The target of experiment [2] is Malus domestica CHASE-containing histidine kinase 4a (MdCHK4a) (Malus domestica).
Experiment [3] deals with Malus domestica CHASE-containing histidine kinase 2 (MdCHK2) (Malus domestica).

These are yes or no findings as the source states them, for the method shown. In cells and extracts the contact can be indirect. A result given as binding can be weak or reduced; the word gives no strength.

On to “Malus domestica CHASE-containing histidine kinase 4a (MdCHK4a) (from UniProt A0A097IC64) (receptor)”, for which, in experiment [1], the binding result is reported as “binds”.

On to “Malus domestica CHASE-containing histidine kinase 3a (MdCHK3a) (from UniProt A0A097IC83) (receptor)”, for which the binding entry in experiment [1], in experiment [2] and in experiment [3] was “binds” in each case.

On to “Malus domestica CHASE-containing histidine kinase 3b (MdCHK3b) (from UniProt A0A097IC99) (receptor)”, for which the binding result in experiment [1], in experiment [2] and in experiment [3] was “binds” in each case.

For “Malus domestica CHASE-containing histidine kinase 2 (MdCHK2) (from UniProt A0A097IC59) (receptor)”, the binding result in experiment [1] and in experiment [2] was “binds” throughout.
